# Hit rate of the full screen: of about 320,000 compounds, about 2,100 (0.66%) were called active. Inconclusive means that the source gave no clear call. Such entries were picked first, then a sample of the others. Calls come from the whole dose curve; as a rule, active = well fitted inhibition curve with a large enough effect in the signal ratio, with a control signal flat (not every such curve was filed as active); inconclusive = small, poorly fitted or top-dose-only effect, or effect the other way, or a change in a side signal; inactive = flat fitted curve, though single readings scatter; the % refers to the signal ratio. Potencies beside an inconclusive call are fits to weak or partial responses and may not hold up.
# Assay: qHTS Assay for Lipid Storage Modulators in Drosophila S3 Cells
# Settings: BODIPY lipid droplet fluorescence, 18-24 h, cells fed with added oleic acid; lipid storage change, negative = inhibition: at 46.1 µM (top of the series) unless noted
# Summary of the method: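 Drosophila S3 cells got compounds at several concentrations plus oleic acid (400 uM solution). Laser-scanning cytometry with 488 nm excitation read lipid droplets at 500-530 nm and cells at 575-640 nm. Percent activity was relative to 20 uM Triacsin C.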
# % is set by controls: 0 for no effect and ±100 for the full control effect; potency is the fitted concentration of half-maximal effect.
Structure (SMILES),"lipid storage change, negative = inhibition",Potency
CNC(=O)Cn1ncc2c(C)n(Cc3ccc(C)cc3)c(C)c2c1=O,inconclusive: 16.9%,–
COc1ccc(C(=O)C2CCCN(C(=O)c3cc(C)nc(C)n3)C2)cc1OC (configuration not stated),–,"inconclusive: 18.4 µM [activator, single point]"
O=C(NCc1cccnc1)c1cc2nc(-c3ccc4c(c3)OCO4)cc(C(F)(F)F)n2n1,inconclusive: -0.155%,–
Nn1c(COc2cccc(Br)c2)nnc1SCC(=O)NCC1CCCO1 (configuration not stated),inconclusive: 1.38%,–
CCC1C(=O)N=C(SCC(=O)Nc2ccc(S(N)(=O)=O)cc2)NC1=O (configuration not stated),–,active: 6.51 µM
O=C(Nc1cc(=O)[nH]c2ncnn12)c1ccco1,inconclusive: -22.8%,–
CC(C)CNS(=O)(=O)c1cc(C(=O)OCC(=O)N2CCOCC2)c(Cl)cc1Cl,–,"inconclusive: 0.731 µM [activator, full curve]"
O=C(Cn1nnc(-c2ccc(Cl)cc2)n1)NCCC1=CCCCC1,inconclusive: 2.91%,–
Cc1ccc(S(=O)(=O)NCc2ccccc2)cc1C(=O)N(C)Cc1ccccc1F,inconclusive: -27.7%,–
O=C(CS(=O)(=O)c1ccccc1)N(CCCN1CCOCC1)c1nc2c(F)cccc2s1,inconclusive,–
COCCn1c(SCC(N)=O)nnc1-c1c[nH]c2ccccc12,inconclusive: -1.52%,–
CC(C)CC(=O)N/C(N)=N/c1nc2ccccc2o1,inconclusive: -2.76%,–
Cc1sc2ncnc(NCCCn3ccnc3)c2c1C,inconclusive: 28.4%,–
COc1ccc(/C=C(\NC(=O)c2ccco2)C(=O)N2CCCCC2)cc1,–,"inconclusive: 6.51 µM [activator, single point]"
CNc1nc(OC)nc(N2CCOCC2)n1,–,"inconclusive: 0.651 µM [falling, full curve, poor fit]"
COc1ccc(Cc2cnc(N)s2)cc1,inconclusive: 30.7%,–
O=C(NCc1ccc2c(c1)OCO2)C1CC(c2ccc(Cl)cc2)=NO1 (configuration not stated),inconclusive: -17.5%,–
CC(C)(C)OC(=O)CNC(=O)c1nc[nH]c1C(=O)N1CCNCC1,inconclusive: 9.02%,–
CCOc1ccc(C(=O)Nc2ncn[nH]2)cc1,–,"inconclusive: 29.1 µM [falling, single point]"
O/N=C/c1cc2ccccc2n1Cc1ccccc1F,inconclusive: -28%,–
Cc1ccc(NC(=O)[C@@H]2CCCN2S(=O)(=O)c2ccccc2F)cc1S(=O)(=O)N1CCOCC1,inconclusive: -0.72%,–
C=CCn1c(SCC(=O)Nc2cccc(C)c2)nnc1-c1cnccn1,–,"inconclusive: 1.84 µM [activator, partial curve, poor fit]"
Cc1ccc(COC(=O)c2ccc3c(c2)C(=O)N(CCCN2CCOCC2)C3=O)cc1,inconclusive: -16.8%,–
CN(C)CCCN1C(=O)c2cc3ccccc3cc2C1=O,inconclusive: 6.74%,–
Cc1ccccc1OC1CCN(C(=O)C2CCC(=O)N(C3CCCC3)C2)CC1 (configuration not stated),inconclusive: -79.5%,–
S=c1[nH]nc(CSc2nc3ccccc3s2)n1C1CCCCC1,inconclusive: -8.8%,–

Structure (SMILES),"lipid storage change, negative = inhibition",Potency
COc1cccc(-c2nn(-c3ccc(C)cc3)cc2C(=O)NCC2CCCO2)c1 (configuration not stated),inconclusive,–
COc1ccccc1NC(=O)Cn1c(=O)n2nc(C)nc2c2ccccc21,–,"inconclusive: 0.517 µM [activator, single point]"
CCOC(=O)Cn1c(-c2ccccc2)cc(SC)c(C#N)c1=O,–,"inconclusive: 0.103 µM [falling, full curve]"
COc1cccc(NC(=O)Nc2cccc(C(=O)O)c2)c1,inconclusive: -23.5%,–
c1ccc(-c2ccccc2OCCOCCN2CCCCC2)cc1,inconclusive: -6.48%,–
O=C(CN1CCN(c2cccc(Cl)c2)CC1)Nc1ccc(S(=O)(=O)N2CCOCC2)cc1,–,"inconclusive: 29.1 µM [falling, single point]"
COc1ccc(NC(=O)CCl)cn1,inconclusive: -26.3%,–
COc1ccc(NC(=O)CN2CCN(C(=O)N3CCOCC3)CC2)cc1,inconclusive: -30.2%,–
Cc1c(C(=O)N2CCOCC2)c(S(=O)(=O)Nc2ccc(C(C)C)cc2)c(C)n1C,inconclusive: -6.42%,–
CNC(=S)N(CCc1c(C)[nH]c2ccccc12)Cc1ccco1,inconclusive: 10.7%,–
COc1ccc(N(C(C)C(=O)N/N=C/c2ccc(OCC(C)C)cc2)S(C)(=O)=O)cc1 (configuration not stated),inconclusive: 40.5%,–
Cc1cccc(S(=O)(=O)c2c(N)n(/N=C/c3ccco3)c3nc4ccccc4nc23)c1,inconclusive: 29.1%,–
CC1CCC(NC(=O)CN(C)S(=O)(=O)c2ccc3c(c2)c(=O)n(C)c(=O)n3C)CC1 (configuration not stated),inconclusive: -13%,–
Cc1ccc2c(c1)nnn2C1CCN(C(=O)NCc2ccccc2)CC1,inconclusive: -31.2%,–
NC(=O)C1CCCN(C(=O)c2ccc(S(=O)(=O)N3CCCCCC3)cc2)C1 (configuration not stated),–,"inconclusive: 2.59 µM [falling, partial curve]"
COc1ccc(-c2cc(C(=O)N3CCCc4ccccc43)no2)cc1OC,–,"inconclusive: 13 µM [falling, single point]"
CCN(CC(=O)Nc1cccc(C(C)=O)c1)S(=O)(=O)c1ccc(OC)cc1,–,"inconclusive: 2.59 µM [activator, full curve]"
CO/N=C/C=C1/N(C)c2ccccc2C1(C)C,inconclusive: 6.87%,–
CSCCC1Nc2ccc(S(=O)(=O)N3CCOCC3)cc2NC1=O (configuration not stated),inconclusive: 43.8%,–
N#Cc1c(/N=C/c2cccnc2)sc2c1CCCC2,inconclusive: 7.59%,–
CN1CCC(=NNC(=O)C(=O)NC2CCCCC2)CC1,inconclusive: 1.2%,–
Nc1cccc2c1C(=O)N(C(=O)/C=C/c1ccc(F)cc1)C2=O,inactive,–
Cc1cc(C)c(S(=O)(=O)N(C)CC(N)=O)c(C)c1,–,"inconclusive: 6.51 µM [cytotoxic, partial curve, poor fit]"
CCCNS(=O)(=O)c1cccc(C(=O)NNC(=O)c2cc(C)oc2C)c1,inconclusive,–
c1ccc(CCCN2CCN(c3ccccc3)CC2)cc1,inconclusive: 32.7%,–
COc1cc(C(=O)NCC2CCCO2)ccc1OCc1ccc(Cl)cc1 (configuration not stated),inconclusive: 11.4%,–

Structure (SMILES),"lipid storage change, negative = inhibition",Potency
CC(=O)c1cccc(NC(=O)CN(C)S(=O)(=O)c2ccccc2)c1,–,"inconclusive: 5.8 µM [falling, partial curve]"
CCOc1ccc(S(=O)(=O)n2ccc(C)n2)cc1,–,"inconclusive: 9.2 µM [activator, single point]"
COc1ccc(NC(=O)COC(=O)CN2C(=O)C3CCCCC3C2=O)cc1OC (configuration not stated),inconclusive: -34.2%,–
Oc1ccc(-c2csc(Nc3ccccn3)n2)cc1,inconclusive: -22.4%,–
CN1/C(=C\C(=S)Nc2ccccc2)C(C)(C)c2ccccc21,inconclusive: -96.6%,–
Clc1ccc(CNCC2CCCO2)cc1 (configuration not stated),–,"inconclusive: 6.51 µM [activator, partial curve]"
COc1ccc(C(=O)N/C(=C\c2ccc(OC)c(OC)c2)C(=O)N2CCCCC2)cc1,inconclusive: -61.8%,–
CCn1nc(C(=O)N2CCc3ccccc32)c2ccccc2c1=O,–,"inconclusive: 0.184 µM [falling, full curve, poor fit]"
CC1(c2ccc3c(c2)OCCCO3)NC(=O)N(CC(=O)Nc2cccc(C#N)c2)C1=O (configuration not stated),–,"inconclusive: 2.31 µM [activator, single point]"
COc1cc2nc(N3CCN(C(=O)OCc4ccccc4)[C@H](C(=O)NC(C)(C)C)C3)nc(N)c2cc1OC,–,"inconclusive: 2.31 µM [activator, single point]"
COc1ccc(/C=N/NC(=O)CCc2n[nH]c(=O)[nH]c2=O)cc1OC,inconclusive: -6.38%,–
CCn1c(SCc2ccc(Cl)cc2Cl)nc2nc3c(cc2c1=O)CCCC3,inconclusive: 19.6%,–
O=C(NCCn1cc(SCC(=O)N2CCOCC2)c2ccccc21)c1c(F)cccc1F,inconclusive: 39.7%,–
O=C(N/N=C1\C/C(=N\NC(=O)c2ccncc2)c2ccccc21)c1ccncc1,inconclusive: 12.1%,–
O=[N+]([O-])c1ccc(S(=O)(=O)Nc2ccc(-c3ccc(N4CCCC4)nn3)cc2)cc1,–,"inconclusive: 6.51 µM [rising, partial curve]"
COC(=O)c1ccc(-c2noc(CN(Cc3ccccn3)CC3CCCO3)n2)cc1 (configuration not stated),inconclusive: -0.0461%,–
COc1ccc(Cn2nnnc2C(c2ccc(C)cc2)N2CCN(C3CCCC3)CC2)cc1 (configuration not stated),inconclusive: -4.81%,–
COCCNC(C)C(=O)C12CC3CC(CC(C3)C1)C2 (configuration not stated),inconclusive: -124%,–
Nc1nonc1-n1nnc(C(=O)N/N=C/c2ccc(OCc3ccccc3)cc2)c1COc1ccc(F)cc1,–,"inconclusive: 0.231 µM [activator, partial curve, poor fit]"
Cc1ccc(NC(=O)C2C3C=CC4(O3)C2C(=O)N(CCN2CCOCC2)C4C(=O)NC2CCCCC2)cc1C (configuration not stated),inconclusive: 135%,–
CC1(c2ccc(Cl)cc2Cl)NC(=O)N(CC(=O)NC2CCCCC2)C1=O (configuration not stated),–,"inconclusive: 0.146 µM [activator, full curve, poor fit]"
c1ccc(-c2nnc(CN3CCN(C(c4ccccc4)c4ccccc4)CC3)o2)cc1,inconclusive: -2.55%,–
O=c1oc(-c2cccs2)nc2sc3c(c12)CCCCC3,inactive,–
CC1(C)CC(=O)C2=C(C1)NC1=C(C(=O)c3ccccc31)C2c1ccc(O)cc1 (configuration not stated),inconclusive: 32.8% [activator],–
COc1ccccc1N1C(=O)CC(Sc2n[nH]c(-c3cccc(C)c3)n2)C1=O (configuration not stated),inconclusive: 17.1%,–

# Taken from the entries so far (2 entries):
Structure (SMILES),"lipid storage change, negative = inhibition",Potency
Cc1ccc(NC(=O)C2C3C=CC4(O3)C2C(=O)N(CCN2CCOCC2)C4C(=O)NC2CCCCC2)cc1C (configuration not stated),inconclusive: 135%,–
CC1(c2ccc(Cl)cc2Cl)NC(=O)N(CC(=O)NC2CCCCC2)C1=O (configuration not stated),–,"inconclusive: 0.146 µM [activator, full curve, poor fit]"

# Source: PubChem BioAssay AID2685 (National Center for Advancing Translational Sciences (NCATS), 2010)
